Laboratory results: PubChem BioAssay AID1259254 (NCATS, 2017)
The whole screen tested about 59,000 reagents; this is a random part of them. Over the whole deposit, about 1,550 (2.6%) are marked active. 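G2 share is only a proxy for re-replication; each gene was hit by three separate siRNAs, and active genes were retested.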 Reagents against one gene are numbered here. Further read-outs or replicates are left out here. Not stated in the record: the amount of reagent.

- Screen: 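Gene knock-downs that lead to re-replication, shown by excess G2 DNA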 (primary screen)
- System: human HCT116 colorectal cancer cells
- Reagent: single siRNA against human genes
- Duration: 3 days
- Measurement: 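Imaged Hoechst DNA stain sorts each cell into a cycle phase by DNA amount; per plate, G2 fraction set to 0% for non-targeting and 100% for GMNN siRNA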
- Scale: G2 robust z-score: higher = more G2 cells, more excess DNA replication
- Active means: 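Active siRNAs have a G2 robust z of 5 or more median absolute deviations over the median, which in these data means about 38% or higher of GMNN control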

{"gene": "PPP1R35", "reagent no.": 1, "G2 robust z-score": 0.261, "call": "inactive"}
{"gene": "PPP1R35", "reagent no.": 2, "G2 robust z-score": 0.31, "call": "inactive"}
{"gene": "PPP1R35", "reagent no.": 3, "G2 robust z-score": 2.35, "call": "inactive"}
{"gene": "CLDN15", "reagent no.": 1, "G2 robust z-score": -0.124, "call": "inactive"}
{"gene": "CLDN15", "reagent no.": 2, "G2 robust z-score": 1.04, "call": "inactive"}
{"gene": "CLDN15", "reagent no.": 3, "G2 robust z-score": -0.755, "call": "inactive"}
{"gene": "ERFE", "reagent no.": 1, "G2 robust z-score": -0.636, "call": "inactive"}
{"gene": "ERFE", "reagent no.": 2, "G2 robust z-score": -0.847, "call": "inactive"}
{"gene": "ERFE", "reagent no.": 3, "G2 robust z-score": -0.313, "call": "inactive"}
{"gene": "MTMR12", "reagent no.": 1, "G2 robust z-score": -0.0107, "call": "inactive"}
{"gene": "MTMR12", "reagent no.": 2, "G2 robust z-score": -1.15, "call": "inactive"}
{"gene": "MTMR12", "reagent no.": 3, "G2 robust z-score": 0.531, "call": "inactive"}
{"gene": "KBTBD2", "reagent no.": 1, "G2 robust z-score": 0.479, "call": "inactive"}
{"gene": "KBTBD2", "reagent no.": 2, "G2 robust z-score": 0.265, "call": "inactive"}
{"gene": "KBTBD2", "reagent no.": 3, "G2 robust z-score": -0.445, "call": "inactive"}
{"gene": "REV1", "reagent no.": 1, "G2 robust z-score": -0.484, "call": "inactive"}
{"gene": "REV1", "reagent no.": 2, "G2 robust z-score": -0.958, "call": "inactive"}
{"gene": "REV1", "reagent no.": 3, "G2 robust z-score": -0.996, "call": "inactive"}

3 of these entries, reformatted.
gene | reagent no. | G2 robust z-score | call
CLDN15 | 2 | 1.04 | inactive
CLDN15 | 3 | -0.755 | inactive
ERFE | 1 | -0.636 | inactive
